Amino acid sequences for entries named in this document (tags omitted).
UniProt Q9H4A3: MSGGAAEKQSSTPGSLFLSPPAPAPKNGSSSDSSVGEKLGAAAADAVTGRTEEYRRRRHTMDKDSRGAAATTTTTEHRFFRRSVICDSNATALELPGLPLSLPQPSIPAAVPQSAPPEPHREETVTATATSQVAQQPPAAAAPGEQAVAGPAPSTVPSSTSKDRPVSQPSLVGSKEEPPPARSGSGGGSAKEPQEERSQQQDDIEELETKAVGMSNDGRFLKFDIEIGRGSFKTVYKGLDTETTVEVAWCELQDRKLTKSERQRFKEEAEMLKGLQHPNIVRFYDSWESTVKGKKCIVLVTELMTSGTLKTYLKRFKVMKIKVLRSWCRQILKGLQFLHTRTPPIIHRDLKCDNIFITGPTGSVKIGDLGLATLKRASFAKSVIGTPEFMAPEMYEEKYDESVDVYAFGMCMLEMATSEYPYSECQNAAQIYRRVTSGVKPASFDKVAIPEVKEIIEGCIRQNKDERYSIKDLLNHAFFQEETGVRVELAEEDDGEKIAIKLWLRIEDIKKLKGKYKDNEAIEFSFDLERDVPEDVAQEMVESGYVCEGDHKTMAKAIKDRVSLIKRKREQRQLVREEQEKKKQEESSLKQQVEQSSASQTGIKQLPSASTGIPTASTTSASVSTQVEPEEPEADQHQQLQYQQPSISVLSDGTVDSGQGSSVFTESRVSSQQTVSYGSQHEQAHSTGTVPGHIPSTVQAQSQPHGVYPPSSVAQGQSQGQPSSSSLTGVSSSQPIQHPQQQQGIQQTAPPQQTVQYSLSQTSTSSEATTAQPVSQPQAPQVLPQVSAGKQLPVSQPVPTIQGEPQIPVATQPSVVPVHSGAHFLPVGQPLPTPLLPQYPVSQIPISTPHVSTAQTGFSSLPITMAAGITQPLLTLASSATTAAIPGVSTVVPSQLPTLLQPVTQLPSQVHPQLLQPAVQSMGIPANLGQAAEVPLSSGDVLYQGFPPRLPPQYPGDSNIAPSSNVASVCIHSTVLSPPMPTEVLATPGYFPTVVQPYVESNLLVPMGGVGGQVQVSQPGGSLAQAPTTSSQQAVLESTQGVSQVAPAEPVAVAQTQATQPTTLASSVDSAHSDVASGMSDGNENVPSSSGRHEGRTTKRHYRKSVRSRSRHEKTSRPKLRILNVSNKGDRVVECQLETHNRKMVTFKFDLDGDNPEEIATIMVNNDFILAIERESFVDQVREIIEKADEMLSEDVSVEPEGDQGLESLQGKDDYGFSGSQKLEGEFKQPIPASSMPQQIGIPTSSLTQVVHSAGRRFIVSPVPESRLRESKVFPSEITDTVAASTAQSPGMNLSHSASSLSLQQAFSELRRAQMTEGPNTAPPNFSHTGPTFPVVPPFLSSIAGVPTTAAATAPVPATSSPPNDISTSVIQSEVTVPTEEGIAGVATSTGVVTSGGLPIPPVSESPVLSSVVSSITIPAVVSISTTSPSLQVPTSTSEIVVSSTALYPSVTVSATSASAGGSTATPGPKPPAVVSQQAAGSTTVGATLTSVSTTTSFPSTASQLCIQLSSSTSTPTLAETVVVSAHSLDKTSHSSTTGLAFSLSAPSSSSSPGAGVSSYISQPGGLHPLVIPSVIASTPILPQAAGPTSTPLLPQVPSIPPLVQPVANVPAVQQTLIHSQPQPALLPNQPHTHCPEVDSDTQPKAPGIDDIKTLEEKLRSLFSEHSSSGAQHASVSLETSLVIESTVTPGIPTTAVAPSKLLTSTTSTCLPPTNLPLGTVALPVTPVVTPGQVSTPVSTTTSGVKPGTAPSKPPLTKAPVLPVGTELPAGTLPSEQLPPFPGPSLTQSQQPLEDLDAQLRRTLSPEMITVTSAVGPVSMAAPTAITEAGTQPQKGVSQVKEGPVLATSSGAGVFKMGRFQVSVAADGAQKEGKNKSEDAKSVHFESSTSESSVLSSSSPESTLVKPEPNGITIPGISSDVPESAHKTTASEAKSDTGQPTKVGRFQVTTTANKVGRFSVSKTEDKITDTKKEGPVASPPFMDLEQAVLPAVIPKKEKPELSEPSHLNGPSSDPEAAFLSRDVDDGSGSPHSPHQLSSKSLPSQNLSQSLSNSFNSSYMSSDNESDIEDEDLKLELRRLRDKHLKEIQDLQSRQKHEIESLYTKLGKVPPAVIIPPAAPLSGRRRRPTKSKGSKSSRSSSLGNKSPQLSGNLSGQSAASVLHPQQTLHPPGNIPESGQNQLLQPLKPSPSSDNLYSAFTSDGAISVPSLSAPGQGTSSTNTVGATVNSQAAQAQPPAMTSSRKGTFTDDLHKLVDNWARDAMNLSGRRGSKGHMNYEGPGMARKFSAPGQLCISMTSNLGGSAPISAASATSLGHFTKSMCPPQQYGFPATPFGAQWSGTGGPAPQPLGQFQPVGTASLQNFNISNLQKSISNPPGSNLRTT
UniProt Q9Y3S1: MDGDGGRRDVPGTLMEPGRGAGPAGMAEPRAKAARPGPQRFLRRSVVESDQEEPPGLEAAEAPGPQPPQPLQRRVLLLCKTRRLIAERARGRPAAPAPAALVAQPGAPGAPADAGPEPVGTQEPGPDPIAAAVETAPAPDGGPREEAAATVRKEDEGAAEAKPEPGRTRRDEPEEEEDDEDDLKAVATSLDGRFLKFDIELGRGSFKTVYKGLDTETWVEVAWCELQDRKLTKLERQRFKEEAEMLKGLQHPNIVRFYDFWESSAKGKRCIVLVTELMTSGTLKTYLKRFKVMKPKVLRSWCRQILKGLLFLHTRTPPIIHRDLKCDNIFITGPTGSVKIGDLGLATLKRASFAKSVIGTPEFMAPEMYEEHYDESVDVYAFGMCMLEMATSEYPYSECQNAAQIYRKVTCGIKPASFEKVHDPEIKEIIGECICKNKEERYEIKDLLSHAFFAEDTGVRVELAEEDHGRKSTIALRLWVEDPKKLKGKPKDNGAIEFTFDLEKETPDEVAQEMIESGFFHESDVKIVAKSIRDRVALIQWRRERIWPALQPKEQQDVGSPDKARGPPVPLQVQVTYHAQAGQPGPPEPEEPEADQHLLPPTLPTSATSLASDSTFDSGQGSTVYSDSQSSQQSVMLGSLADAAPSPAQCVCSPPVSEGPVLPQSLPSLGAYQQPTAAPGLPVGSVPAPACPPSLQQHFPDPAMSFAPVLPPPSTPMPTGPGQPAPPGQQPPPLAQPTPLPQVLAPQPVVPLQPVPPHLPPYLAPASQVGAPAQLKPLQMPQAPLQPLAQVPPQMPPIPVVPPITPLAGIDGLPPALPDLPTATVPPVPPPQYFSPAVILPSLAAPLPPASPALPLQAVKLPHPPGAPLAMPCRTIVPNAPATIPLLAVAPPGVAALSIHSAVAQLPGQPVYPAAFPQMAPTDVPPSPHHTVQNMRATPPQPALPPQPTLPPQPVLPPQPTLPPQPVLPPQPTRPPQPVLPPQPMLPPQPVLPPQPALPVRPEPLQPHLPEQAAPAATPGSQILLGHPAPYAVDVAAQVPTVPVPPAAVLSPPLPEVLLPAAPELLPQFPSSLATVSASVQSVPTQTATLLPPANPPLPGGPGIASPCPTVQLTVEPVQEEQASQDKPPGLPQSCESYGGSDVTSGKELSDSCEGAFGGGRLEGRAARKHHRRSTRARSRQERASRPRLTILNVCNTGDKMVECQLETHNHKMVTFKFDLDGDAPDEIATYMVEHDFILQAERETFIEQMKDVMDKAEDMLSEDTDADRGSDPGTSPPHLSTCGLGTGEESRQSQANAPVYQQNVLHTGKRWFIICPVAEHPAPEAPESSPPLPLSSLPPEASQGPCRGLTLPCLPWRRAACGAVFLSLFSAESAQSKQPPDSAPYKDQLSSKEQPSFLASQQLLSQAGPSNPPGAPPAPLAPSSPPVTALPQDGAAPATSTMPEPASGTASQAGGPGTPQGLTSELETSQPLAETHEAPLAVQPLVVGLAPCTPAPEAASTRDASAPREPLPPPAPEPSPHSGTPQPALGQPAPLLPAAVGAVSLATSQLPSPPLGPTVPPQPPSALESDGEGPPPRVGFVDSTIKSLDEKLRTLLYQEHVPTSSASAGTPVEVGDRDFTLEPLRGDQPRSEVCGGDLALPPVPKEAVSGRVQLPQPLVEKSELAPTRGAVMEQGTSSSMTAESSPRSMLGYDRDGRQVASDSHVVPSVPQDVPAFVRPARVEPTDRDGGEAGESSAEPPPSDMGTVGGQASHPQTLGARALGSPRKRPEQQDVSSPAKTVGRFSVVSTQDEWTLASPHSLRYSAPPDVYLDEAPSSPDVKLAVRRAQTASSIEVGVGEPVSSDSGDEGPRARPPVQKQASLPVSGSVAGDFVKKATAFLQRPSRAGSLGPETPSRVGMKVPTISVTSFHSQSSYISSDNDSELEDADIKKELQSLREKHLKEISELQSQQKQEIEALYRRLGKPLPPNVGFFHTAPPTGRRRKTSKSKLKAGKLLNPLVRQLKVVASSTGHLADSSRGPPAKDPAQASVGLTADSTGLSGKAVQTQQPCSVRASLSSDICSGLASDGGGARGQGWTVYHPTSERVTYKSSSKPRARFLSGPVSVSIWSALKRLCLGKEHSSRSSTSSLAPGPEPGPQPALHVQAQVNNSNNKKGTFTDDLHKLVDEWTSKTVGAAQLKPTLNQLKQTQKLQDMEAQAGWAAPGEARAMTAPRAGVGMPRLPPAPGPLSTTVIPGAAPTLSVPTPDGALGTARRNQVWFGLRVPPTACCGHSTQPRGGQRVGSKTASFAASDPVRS
UniProt Q9BYP7: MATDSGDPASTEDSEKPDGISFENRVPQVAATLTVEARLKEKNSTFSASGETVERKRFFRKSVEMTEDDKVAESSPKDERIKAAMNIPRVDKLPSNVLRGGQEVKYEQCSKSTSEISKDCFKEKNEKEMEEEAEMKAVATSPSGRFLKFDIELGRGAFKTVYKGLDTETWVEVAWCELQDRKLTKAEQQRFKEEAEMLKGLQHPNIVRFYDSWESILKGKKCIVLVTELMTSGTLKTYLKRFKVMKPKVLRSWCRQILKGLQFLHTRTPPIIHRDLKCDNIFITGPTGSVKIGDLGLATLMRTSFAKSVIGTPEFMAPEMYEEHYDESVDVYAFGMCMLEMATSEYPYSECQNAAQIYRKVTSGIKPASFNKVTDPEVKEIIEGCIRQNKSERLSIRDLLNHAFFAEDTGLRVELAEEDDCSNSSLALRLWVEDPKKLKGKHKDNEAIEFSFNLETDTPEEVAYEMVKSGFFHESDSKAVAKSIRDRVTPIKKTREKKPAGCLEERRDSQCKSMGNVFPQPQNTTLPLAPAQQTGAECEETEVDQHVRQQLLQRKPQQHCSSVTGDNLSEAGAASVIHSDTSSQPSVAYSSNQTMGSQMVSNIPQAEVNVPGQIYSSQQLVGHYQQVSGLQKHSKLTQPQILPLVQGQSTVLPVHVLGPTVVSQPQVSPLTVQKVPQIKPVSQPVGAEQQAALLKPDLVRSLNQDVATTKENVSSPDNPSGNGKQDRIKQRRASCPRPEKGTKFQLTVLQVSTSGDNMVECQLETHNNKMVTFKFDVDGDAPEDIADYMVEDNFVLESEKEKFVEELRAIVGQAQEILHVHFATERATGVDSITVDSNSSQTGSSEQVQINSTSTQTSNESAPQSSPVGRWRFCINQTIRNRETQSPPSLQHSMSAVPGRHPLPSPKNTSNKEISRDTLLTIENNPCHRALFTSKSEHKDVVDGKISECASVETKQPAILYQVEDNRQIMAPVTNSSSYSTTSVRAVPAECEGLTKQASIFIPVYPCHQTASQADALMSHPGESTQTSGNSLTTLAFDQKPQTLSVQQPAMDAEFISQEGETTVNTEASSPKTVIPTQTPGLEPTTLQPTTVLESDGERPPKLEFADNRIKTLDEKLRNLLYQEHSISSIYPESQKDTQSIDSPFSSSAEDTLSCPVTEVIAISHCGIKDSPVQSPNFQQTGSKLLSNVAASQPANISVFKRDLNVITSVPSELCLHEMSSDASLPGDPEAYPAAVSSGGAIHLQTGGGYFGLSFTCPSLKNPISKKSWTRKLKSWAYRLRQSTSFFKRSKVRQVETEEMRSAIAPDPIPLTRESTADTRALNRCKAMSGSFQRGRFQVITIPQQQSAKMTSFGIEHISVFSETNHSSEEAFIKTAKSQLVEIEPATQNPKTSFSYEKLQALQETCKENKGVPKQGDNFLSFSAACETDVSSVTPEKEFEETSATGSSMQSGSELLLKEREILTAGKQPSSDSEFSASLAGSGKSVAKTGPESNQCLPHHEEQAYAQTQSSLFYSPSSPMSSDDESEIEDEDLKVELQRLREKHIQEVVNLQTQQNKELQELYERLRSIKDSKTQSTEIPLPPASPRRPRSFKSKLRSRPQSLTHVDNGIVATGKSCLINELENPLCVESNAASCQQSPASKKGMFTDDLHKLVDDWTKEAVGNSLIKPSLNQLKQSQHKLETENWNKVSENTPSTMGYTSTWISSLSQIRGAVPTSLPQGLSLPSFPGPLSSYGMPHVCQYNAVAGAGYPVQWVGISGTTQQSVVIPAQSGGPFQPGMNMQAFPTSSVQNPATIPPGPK

In paper PMC3632089:

Key:
Assay in all cases: affinity purification with mass spectrometry; anti-FLAG agarose IP of FLAG-KLHL3 from 5 mg HEK-293 lysate; washed 3x with lysis buffer containing 0.5 M NaCl and 2x with Buffer A; SDS-PAGE, Colloidal Blue staining, bands analysed by LC-MS/MS (Orbitrap, Mascot)
[1] = molecular target: T1, FLAG-tagged KLHL3[R528H] (human) (UniProt Q9UH77)
T1 sequence: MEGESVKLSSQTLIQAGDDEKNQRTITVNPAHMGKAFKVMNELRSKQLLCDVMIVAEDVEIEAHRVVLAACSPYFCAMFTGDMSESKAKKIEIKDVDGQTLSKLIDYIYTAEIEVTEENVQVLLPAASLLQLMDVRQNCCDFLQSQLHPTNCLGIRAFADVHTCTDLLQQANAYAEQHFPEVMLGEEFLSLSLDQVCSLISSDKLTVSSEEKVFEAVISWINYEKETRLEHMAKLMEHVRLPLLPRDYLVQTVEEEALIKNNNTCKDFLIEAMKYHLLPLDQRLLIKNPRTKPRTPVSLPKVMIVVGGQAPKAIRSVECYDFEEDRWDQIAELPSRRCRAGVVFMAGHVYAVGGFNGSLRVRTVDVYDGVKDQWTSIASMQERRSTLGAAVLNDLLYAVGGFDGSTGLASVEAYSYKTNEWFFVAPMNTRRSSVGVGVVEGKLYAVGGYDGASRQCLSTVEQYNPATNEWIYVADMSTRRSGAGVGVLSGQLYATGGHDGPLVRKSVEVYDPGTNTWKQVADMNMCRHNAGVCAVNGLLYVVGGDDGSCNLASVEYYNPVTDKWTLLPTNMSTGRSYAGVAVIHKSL

[2] = molecular target: T2, FLAG-tagged KLHL3[S432N] (human) (UniProt Q9UH77)
T2 sequence: T1 sequence with S432N, H528R

[3] = molecular target: T3, FLAG-tagged wild-type KLHL3 (Kelch-like 3) (human) (UniProt Q9UH77)
T3 sequence: T1 sequence with H528R

Row | binding [1] | binding [2] | binding [3] | Substance
1 | binds | no binding | binds | WNK1 (with no lysine kinase 1), endogenous (from UniProt Q9H4A3 1-2382)
2 | no binding | no binding | binds | WNK2, endogenous (from UniProt Q9Y3S1 1-2297)
3 | no binding | no binding | binds | WNK3, endogenous (from UniProt Q9BYP7 1-1800)

Positions count from the first letter of the chain named. No constants are given. Whether binding was seen depends on the method and setting. In cells and extracts the contact can be indirect. Here binding means that the protein was enriched with, or labelled near, the bait; the list need not be complete. For part of these data: A no says only that the protein was not detected with the bait. Where a sequence is shown, tags or fusion partners need not be part of it.
